Test results taken from publication doi:10.1101/2020.05.28.121731.
These are yes or no findings as the source states them, for the method shown. Some binding calls cover weakened binding; strength is not graded here.

By UniProt entry, the sequences of proteins in these tests, tags left out.
UniProt P37870: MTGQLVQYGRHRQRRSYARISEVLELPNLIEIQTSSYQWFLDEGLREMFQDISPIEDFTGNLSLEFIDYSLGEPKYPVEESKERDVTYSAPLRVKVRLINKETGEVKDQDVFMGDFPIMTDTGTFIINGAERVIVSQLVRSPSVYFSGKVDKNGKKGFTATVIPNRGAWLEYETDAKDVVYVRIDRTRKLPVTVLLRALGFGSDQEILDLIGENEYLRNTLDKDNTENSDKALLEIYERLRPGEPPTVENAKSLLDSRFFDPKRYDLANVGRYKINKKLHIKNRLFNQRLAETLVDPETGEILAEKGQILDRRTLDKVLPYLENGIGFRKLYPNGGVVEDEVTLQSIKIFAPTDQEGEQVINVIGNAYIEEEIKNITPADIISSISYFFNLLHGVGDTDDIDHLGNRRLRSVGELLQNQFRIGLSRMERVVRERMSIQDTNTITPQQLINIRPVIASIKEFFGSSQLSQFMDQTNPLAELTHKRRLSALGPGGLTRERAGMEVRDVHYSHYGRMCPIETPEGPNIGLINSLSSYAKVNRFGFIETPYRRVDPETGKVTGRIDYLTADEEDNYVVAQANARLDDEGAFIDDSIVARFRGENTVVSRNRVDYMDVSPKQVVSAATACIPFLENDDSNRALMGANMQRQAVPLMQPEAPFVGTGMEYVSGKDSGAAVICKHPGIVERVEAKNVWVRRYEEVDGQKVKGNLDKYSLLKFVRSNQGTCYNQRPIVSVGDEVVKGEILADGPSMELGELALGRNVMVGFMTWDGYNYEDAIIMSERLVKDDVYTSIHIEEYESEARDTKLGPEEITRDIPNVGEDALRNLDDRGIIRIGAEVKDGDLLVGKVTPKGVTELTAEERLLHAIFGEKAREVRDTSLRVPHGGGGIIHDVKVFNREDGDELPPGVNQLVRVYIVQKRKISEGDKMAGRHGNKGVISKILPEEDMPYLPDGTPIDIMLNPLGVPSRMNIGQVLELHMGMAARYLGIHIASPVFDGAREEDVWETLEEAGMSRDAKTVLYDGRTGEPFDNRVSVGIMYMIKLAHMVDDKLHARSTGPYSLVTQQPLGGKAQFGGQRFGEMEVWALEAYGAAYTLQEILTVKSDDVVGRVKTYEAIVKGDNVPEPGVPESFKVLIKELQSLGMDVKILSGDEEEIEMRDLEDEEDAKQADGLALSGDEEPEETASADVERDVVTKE

Biological target: RNA polymerase (RNAP), β subunit RpoB (B. subtilis) (UniProt P37870)
Assay: two-hybrid

B1: B. subtilis Mfd (protein, UniProt P37474 1-1177)
chain: MDNIQTFIKESDDFKSIINGLHEGLKEQLLAGLSGSARSVFTSALANETNKPIFLITHNLYQAQKVTDDLTSLLEDRSVLLYPVNELISSEIAVASPELRAQRLDVINRLTNGEAPIVVAPVAAIRRMLPPVEVWKSSQMLIQVGHDIEPDQLASRLVEVGYERSDMVSAPGEFSIRGGIIDIYPLTSENPVRIELFDTEVDSIRSFNSDDQRSIETLTSINIGPAKELIIRPEEKARAMEKIDSGLAASLKKLKADKQKEILHANISHDKERLSEGQTDQELVKYLSYFYEKPASLLDYTPDNTLLILDEVSRIHEMEEQLQKEEAEFITNLLEEGKILHDIRLSFSFQKIVAEQKRPLLYYSLFLRHVHHTSPQNIVNVSGRQMQSFHGQMNVLAGEMERFKKSNFTVVFLGANKERTQKLSSVLADYDIEAAMTDSKKALVQGQVYIMEGELQSGFELPLMKLAVITEEELFKNRVKKKPRKQKLTNAERIKSYSELQIGDYVVHINHGIGKYLGIETLEINGIHKDYLNIHYQGSDKLYVPVEQIDQVQKYVGSEGKEPKLYKLGGSEWKRVKKKVETSVQDIADDLIKLYAEREASKGYAFSPDHEMQREFESAFPYQETEDQLRSIHEIKKDMERERPMDRLLCGDVGYGKTEVAIRAAFKAIGDGKQVALLVPTTILAQQHYETIKERFQDYPINIGLLSRFRTRKEANETIKGLKNGTVDIVIGTHRLLSKDVVYKDLGLLIIDEEQRFGVTHKEKIKQIKANVDVLTLTATPIPRTLHMSMLGVRDLSVIETPPENRFPVQTYVVEYNGALVREAIERELARGGQVYFLYNRVEDIERKADEISMLVPDAKVAYAHGKMTENELETVMLSFLEGESDVLVSTTIIETGVDIPNVNTLIVFDADKMGLSQLYQLRGRVGRSNRVAYAYFTYRRDKVLTEVAEKRLQAIKEFTELGSGFKIAMRDLTIRGAGNLLGAQQHGFIDSVGFDLYSQMLKEAIEERKGDTAKTEQFETEIDVELDAYIPETYIQDGKQKIDMYKRFRSVATIEEKNELQDEMIDRFGNYPKEVEYLFTVAEMKVYARQERVELIKQDKDAVRLTISEEASAEIDGQKLFELGNQYGRQIGLGMEGKKLKISIQTKGRSADEWLDTVLGMLKGLKDVKKQTISST
Question: For B1, which binding is on record?
Answer: binds
